A: 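Enzyme assay of the thioesterase domain of polyketide synthase 13; the read-out is not stated. Target: Polyketide synthase Pks13, Mycobacterium tuberculosis (UniProt I6X8D2). Tested at 30 µM. Higher reads as stronger inhibition (inferred from which compounds were picked for retests). About 67,000 compounds were tested under these conditions; 0.46% (about 300) showed 50% or more at least once.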
B: 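Assay of Toxoplasma gondii numbers, read through their beta-galactosidase reporter with a colour substrate. Concentration: 10 µM. The record gives no direction; the compounds picked for IC50 retests had high values, so higher reads as fewer parasites. Size under these conditions: about 67,000 compounds, about 260 of them at 50% or above in at least one test.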
C: 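Coenzyme A biosynthesis protein CoaBC, Mycobacterium tuberculosis (UniProt P9WNZ1). Enzyme assay of CoaBC with a phosphate dye (Biomol Green) read at 650 nm. Concentration: 30 µM. Direction is inferred from only a few compounds that gave an IC50; most scored high, so higher reads as stronger inhibition. Most strong results did not repeat in a second test. Size under these conditions: about 67,000 compounds, about 40 of them at 50% or above in at least one test.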
D: 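Tryptophan-tRNA ligase, Mycobacterium tuberculosis (UniProt P9WFT3). Enzyme assay of tryptophanyl-tRNA synthetase; the read-out is not stated. Tested at 10 µM. Higher most likely means stronger inhibition; the record gives no direction and few retests gave an IC50. Of about 65,000 compounds tested this way, about 64 (0.098%) reached 50% or more in at least one test.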
E: 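Enzyme assay of histidyl-tRNA synthetase; the read-out is not stated. Target: Histidine-tRNA ligase, Leishmania infantum (UniProt A4I591). Concentration: 30 µM. Direction is inferred from retests: higher values go with stronger inhibition. The assay is labelled LdHisRS but filed under L. infantum. About 69,000 compounds were tested under these conditions; 0.6% (about 410) showed 50% or more at least once.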
F: 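Enzyme assay of histidyl-tRNA synthetase; the read-out is not stated. Target: Histidine-tRNA ligase, Trypanosoma cruzi CL Brener (UniProt Q4DA54). Tested at 30 µM. Higher reads as stronger inhibition (inferred: compounds with an IC50 in retests scored well above the rest). Size under these conditions: about 69,000 compounds, about 31 of them at 50% or above in at least one test.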

Sequences of proteins named here, by UniProt entry; tags and fusion partners are left off. Residues count along the entry.
UniProt I6X8D2, whole entry: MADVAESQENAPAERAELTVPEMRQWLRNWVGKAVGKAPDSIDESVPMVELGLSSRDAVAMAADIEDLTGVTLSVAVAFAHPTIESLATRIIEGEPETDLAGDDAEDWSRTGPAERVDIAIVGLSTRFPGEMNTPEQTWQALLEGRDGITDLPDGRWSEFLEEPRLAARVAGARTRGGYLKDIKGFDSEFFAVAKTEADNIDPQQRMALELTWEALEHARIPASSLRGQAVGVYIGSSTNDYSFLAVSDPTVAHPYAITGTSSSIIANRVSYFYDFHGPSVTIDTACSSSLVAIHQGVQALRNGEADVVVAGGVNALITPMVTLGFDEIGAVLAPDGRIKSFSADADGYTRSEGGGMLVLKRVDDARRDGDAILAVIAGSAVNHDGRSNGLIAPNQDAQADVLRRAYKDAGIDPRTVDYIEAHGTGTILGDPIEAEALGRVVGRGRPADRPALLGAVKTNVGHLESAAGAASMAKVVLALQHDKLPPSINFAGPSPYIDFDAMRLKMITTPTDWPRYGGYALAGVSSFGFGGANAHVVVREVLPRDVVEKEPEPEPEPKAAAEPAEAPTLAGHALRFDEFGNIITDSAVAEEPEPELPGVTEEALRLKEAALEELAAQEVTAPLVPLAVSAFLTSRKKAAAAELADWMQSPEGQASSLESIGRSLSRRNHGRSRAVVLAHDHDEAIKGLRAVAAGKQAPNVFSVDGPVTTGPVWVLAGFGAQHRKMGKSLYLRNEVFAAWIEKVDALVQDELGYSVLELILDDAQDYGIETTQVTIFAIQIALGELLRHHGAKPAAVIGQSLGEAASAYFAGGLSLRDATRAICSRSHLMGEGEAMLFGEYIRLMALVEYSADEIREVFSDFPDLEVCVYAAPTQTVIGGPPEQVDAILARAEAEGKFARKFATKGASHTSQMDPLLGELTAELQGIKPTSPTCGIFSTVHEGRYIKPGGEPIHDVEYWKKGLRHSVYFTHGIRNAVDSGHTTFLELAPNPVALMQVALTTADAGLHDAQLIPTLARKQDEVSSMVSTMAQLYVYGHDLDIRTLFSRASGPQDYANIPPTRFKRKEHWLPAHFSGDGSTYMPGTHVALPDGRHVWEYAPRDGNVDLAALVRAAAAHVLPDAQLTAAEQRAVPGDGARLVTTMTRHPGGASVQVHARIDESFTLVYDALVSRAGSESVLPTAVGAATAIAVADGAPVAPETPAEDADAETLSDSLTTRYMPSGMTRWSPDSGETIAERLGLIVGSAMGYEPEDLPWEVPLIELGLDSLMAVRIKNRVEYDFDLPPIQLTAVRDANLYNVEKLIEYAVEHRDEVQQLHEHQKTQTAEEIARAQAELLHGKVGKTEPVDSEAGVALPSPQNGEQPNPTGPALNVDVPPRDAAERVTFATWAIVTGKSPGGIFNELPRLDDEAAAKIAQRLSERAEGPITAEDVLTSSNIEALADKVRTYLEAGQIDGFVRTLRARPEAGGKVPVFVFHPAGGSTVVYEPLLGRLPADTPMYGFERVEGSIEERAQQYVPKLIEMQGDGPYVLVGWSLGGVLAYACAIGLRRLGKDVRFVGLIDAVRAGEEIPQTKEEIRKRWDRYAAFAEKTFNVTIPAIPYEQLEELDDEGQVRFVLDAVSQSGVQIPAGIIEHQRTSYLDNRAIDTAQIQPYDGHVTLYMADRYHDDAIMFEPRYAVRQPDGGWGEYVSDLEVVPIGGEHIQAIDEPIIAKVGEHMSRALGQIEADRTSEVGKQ
UniProt P9WNZ1, whole entry: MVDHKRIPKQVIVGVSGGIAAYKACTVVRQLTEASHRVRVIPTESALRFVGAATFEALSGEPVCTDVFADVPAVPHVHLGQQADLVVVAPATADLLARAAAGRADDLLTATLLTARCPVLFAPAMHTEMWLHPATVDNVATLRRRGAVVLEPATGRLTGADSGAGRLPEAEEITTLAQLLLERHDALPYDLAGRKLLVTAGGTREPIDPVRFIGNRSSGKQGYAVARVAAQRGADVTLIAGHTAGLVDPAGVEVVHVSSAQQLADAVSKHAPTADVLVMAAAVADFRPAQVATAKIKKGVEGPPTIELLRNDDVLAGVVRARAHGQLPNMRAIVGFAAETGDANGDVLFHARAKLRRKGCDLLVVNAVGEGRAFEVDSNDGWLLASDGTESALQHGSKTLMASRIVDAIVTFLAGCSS
UniProt P9WFT3, whole entry: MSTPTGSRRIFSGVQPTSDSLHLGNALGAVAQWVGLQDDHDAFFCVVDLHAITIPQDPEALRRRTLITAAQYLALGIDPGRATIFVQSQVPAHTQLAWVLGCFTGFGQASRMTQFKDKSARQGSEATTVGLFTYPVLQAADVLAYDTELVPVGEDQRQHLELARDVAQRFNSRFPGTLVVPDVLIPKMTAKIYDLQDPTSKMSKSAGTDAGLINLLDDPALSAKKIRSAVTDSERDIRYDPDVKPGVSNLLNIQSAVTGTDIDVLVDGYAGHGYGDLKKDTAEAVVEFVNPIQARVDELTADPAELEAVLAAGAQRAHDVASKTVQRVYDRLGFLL
UniProt A4I591, 1-473: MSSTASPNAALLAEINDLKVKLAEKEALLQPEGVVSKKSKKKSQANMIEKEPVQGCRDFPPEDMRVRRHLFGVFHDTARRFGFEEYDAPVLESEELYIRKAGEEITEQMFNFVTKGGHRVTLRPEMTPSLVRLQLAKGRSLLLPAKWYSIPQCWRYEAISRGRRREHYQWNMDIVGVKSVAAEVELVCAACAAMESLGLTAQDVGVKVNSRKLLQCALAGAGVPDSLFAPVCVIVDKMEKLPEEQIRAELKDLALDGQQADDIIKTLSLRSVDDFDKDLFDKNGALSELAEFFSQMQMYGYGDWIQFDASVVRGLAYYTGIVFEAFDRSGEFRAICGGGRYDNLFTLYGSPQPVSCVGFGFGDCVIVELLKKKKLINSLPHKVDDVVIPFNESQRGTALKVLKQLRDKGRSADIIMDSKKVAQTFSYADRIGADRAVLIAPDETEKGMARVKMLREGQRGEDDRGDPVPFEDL
UniProt Q4DA54, 1-478: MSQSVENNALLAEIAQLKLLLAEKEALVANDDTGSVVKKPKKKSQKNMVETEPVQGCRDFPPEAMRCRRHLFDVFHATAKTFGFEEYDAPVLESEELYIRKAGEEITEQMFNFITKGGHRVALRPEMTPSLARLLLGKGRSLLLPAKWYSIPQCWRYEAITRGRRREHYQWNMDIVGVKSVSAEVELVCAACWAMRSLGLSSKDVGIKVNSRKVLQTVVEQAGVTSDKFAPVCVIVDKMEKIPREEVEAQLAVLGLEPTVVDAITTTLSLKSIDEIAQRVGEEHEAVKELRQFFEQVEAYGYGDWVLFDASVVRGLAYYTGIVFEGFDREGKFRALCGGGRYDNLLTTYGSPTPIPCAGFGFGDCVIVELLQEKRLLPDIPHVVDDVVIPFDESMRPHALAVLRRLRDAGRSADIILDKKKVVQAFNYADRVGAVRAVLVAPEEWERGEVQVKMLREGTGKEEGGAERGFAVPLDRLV

Values are the deposited “Percent Effect”, in %.
The controls that fix the scale are not given in the record; negative values are as filed.
Compounds were drawn at random from those tested, without regard to their results.

Cc1nc(CNCC2CN(C)CCO2)cs1 (stereo not drawn) read A: -0.2062%; B: 1.224%; C: 1.581%; D: -0.807%; E: 21.88%; F: 6.464%. Result for C[C@H]1CCCCN1CCCNc1nccc(-c2c[nH][nH]c2=O)n1 was A: 13.47%; B: 11.79%; C: 0.6024%; E: 20%; F: 6.78%. Result for CCn1cnnc1C1CCN(C(=O)c2cccc(OC)c2OC)CC1 was A: -12.28%; B: 9.55%; C: 4.258%; D: -1.558%; E: 15.65%; F: 5.747%. For CCOc1cncc(N2CCCC2c2nnc3n2CCCCC3)n1 (stereo not drawn) the result was A: -1.916%; B: -9.936%; C: -0.7264%; D: 0.1897%; E: 8.696%; F: 13%. Result for c1cc(CN2CCOCC3(CCN(C4CCOCC4)C3)C2)ccn1 (stereo not drawn) was A: -6.081%; B: 0.5351%; C: -9.244%; D: -2.441%; E: -7.273%; F: 7.438%. [H][C@@]12C[C@@H](c3ccncn3)O[C@]1([H])CN(C(=O)c1c(C)noc1C)C2 read B: -1.13%. With CC1(C)CC(=O)N(CC(=O)Nc2ccon2)c2ccccc21 the screen gave A: -11.45%; B: -10.01%; C: 0.241%; D: 2.265%; E: 18.68%; F: 12.87%.

Result for CCC1CN(C(=O)c2cc(C(C)=O)c(C)[nH]c2=O)CCN1C(C)C (stereo not drawn) was A: -7.226%; B: 1.747%; C: 4.412%; D: 8.025%; E: 13.33%; F: 7.143%. Result for Cc1cc(CSC2CCCN(c3cnn(C)c3)C2=O)no1 (stereo not drawn) was A: -5.093%; B: -21.08%; C: 0.1266%; D: -2.169%; E: 20%; F: 4.969%. CC(C)CNC(=O)c1cc(C2CC2)nc2onc(C3CCNCC3)c12 read A: -9.469%; B: 32.84%; C: -3.421%; D: -1.642%; E: 11.03%; F: 4.142%. Result for O=C(CCNC(=O)c1ccoc1)Nc1c(F)cccc1F was A: -13.48%; B: 1.595%; C: 4.872%; D: 1.016%; E: 13.33%; F: 4.151%. With COc1cccc(CNC[C@@]2(COc3cccnc3)C[C@@H](O)[C@@H](O)C2)c1 the screen gave A: 3.653%; C: 5.96%; D: -2.959%; E: 14.86%; F: 8.696%. Cn1cc(CC(=O)N2CCCC(n3cncn3)C2)cn1 (stereo not drawn) gave A: -7.355%; B: -10.17%; C: 2.089%; D: -7.688%; E: 10.34%; F: 2.825%. CC(C)NC(=O)C1CN(C(=O)Nc2ccccc2)CC12CCOCC2 (stereo not drawn) read A: -10.42%; B: 3.612%; C: -3.475%; D: 5.465%; E: 1.961%; F: 6.011%.

O=S(=O)(NCC1(O)CCOCC1)c1c(F)cccc1F gave A: -30.89%; B: -1.931%; C: 4.44%; D: 0.8359%; E: 17.39%; F: 5.155%. For CC(C)N1CCO[C@@H]2CN(C(=O)Cc3cccs3)CC[C@@H]2C1 the result was C: 6.173%; E: 8.182%; F: -1.058%. CN(C)C(=O)N1Cc2ncn(C)c2C(COCC2CCOCC2)C1.O=C(O)C(F)(F)F (stereo not drawn) gave B: -1.543%. For CC(C)(C)c1nc(CN2CCCC(Cn3cncn3)C2)no1 (stereo not drawn) the result was A: -3.573%; B: -8.176%; C: 6.087%; D: -4.591%; E: 8.772%; F: 4.298%.

Source: ChEMBL document CHEMBL3988442, “University of Dundee, Small-Polar-MMV Screening Library” (2021).